Test results published in article PMC7819943, “Rice protein-binding microarrays: a tool to detect cis-acting elements near promoter regions in rice”.
The list shows a part of the results.

Amino acid sequences for entries named in this document (tags omitted).
UniProt Q0JBA9, entry or part of it: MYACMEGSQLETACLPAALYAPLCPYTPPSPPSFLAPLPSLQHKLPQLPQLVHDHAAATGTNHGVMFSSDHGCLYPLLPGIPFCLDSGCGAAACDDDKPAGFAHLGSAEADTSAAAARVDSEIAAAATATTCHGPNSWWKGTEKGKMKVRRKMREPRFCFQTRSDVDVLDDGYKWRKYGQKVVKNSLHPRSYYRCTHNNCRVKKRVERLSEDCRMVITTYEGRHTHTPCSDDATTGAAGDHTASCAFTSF

What follows are sequences tested against OsWRKY34 (Oryza sativa, UniProt Q0JBA9 1-250) (assay: protein-binding microarray (RPBM); PBS, 2% BSA, 51.3 ng/ul salmon testes DNA, 50 uM zinc acetate, 200 nM TF, 25 C, 1 h; high values mean tight binding). Conditions: protein: recombinant; tags: N-terminal polyhistidine and DsRed monomer fusion (pET32a); label: CyDye5-dUTP incorporated in the synthesized complementary strand; 3' TTTTT single-stranded linker to array surface; dsDNA, one strand shown.
In short: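 An Axon 4000B scanner gave the binding signal as per-feature fluorescence intensity in arbitrary units. This followed washing of a custom Agilent array that had been incubated for 1 h at 25 °C with 200 nM protein in PBS, 2% BSA, salmon testes DNA and 50 µM zinc acetate. The proteins were transcription factors fused at the N-terminus to polyhistidine and DsRed, expressed in E. coli BL21-CodonPlus and purified on Ni–NTA.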

| Sequence | binding signal |
| --- | --- |
| TTTTAACTCTAAACTATAACCTTTTTCTTTCTTTTCGTTACGGAGTCACCTAGTGCAG | 8200 fluorescence intensity (a.u.) |
| AGACCTACCGATTGGTGCTGACATTGGTCGTTATTGCAAACGGAGTCACCTAGTGCAG | 8740 fluorescence intensity (a.u.) |
| TTTTGGCTGACGTGGCGCTTACGTGGTTGGTTTGACTAGACGGAGTCACCTAGTGCAG | 8510 fluorescence intensity (a.u.) |
| TCCGGTTGGCAAGTTTGTTGGATTAGGATTTTGATTCAAACGGAGTCACCTAGTGCAG | 8710 fluorescence intensity (a.u.) |
| CTATATATTATCAAGTTTGACTGGTTGACTATGGTTGTGTCGGAGTCACCTAGTGCAG | 10500 fluorescence intensity (a.u.) |
| ATTAATTCCTCGCGCCCCATCCATCCATTCCCCTGCCATGCGGAGTCACCTAGTGCAG | 9080 fluorescence intensity (a.u.) |
| TCTCTTTCTCTCTCTTGGGCAATCTGTGGGCAGGGGCGGCCGGAGTCACCTAGTGCAG | 12400 fluorescence intensity (a.u.) |
| CCTTGTTGGCTTGTCTTGTTTGTCCATGAAAATCTCATAGCGGAGTCACCTAGTGCAG | 10100 fluorescence intensity (a.u.) |
| CGTTTGGCCAAGTATATGACGCCCTAACTTATAAGTTGACCGGAGTCACCTAGTGCAG | 8420 fluorescence intensity (a.u.) |
| GTTGTTAATAGTGGGTTTTTTAGCGTTGTTAATTATAAATCGGAGTCACCTAGTGCAG | 9830 fluorescence intensity (a.u.) |
| CCGCCCTTAGACAGGCCCCGCCTCCGCCTCCGCGCCCACCCGGAGTCACCTAGTGCAG | 27800 fluorescence intensity (a.u.) |
| TTCTTACCTTTTTCGATTTCGTCGTTCACTGTTGTTAGTCCGGAGTCACCTAGTGCAG | 10000 fluorescence intensity (a.u.) |
| CTTTCAATATTGCTTATTTTTAAATCCGAATTTCAGCTATCGGAGTCACCTAGTGCAG | 9420 fluorescence intensity (a.u.) |
| CTCTCCTTTTCTTCTTCTCAGCGTCGCCGTCGTCTTCTTTCGGAGTCACCTAGTGCAG | 10900 fluorescence intensity (a.u.) |
| TTTTCAACCTTATATTGTCATTGTCCGTCAACTTGGCTTGCGGAGTCACCTAGTGCAG | 8970 fluorescence intensity (a.u.) |
| TTCCCACTAACCCCAATTCACTCATGTTGTAGTATCCGTACGGAGTCACCTAGTGCAG | 12100 fluorescence intensity (a.u.) |
| GTCGATCTCCCCGTCCCGGTGGACTATCGCGCGCGTTTTTCGGAGTCACCTAGTGCAG | 8620 fluorescence intensity (a.u.) |
| TAGTTTTGTTTAATTCCTGTCTCGGGTTTGGTTGGTTGCTCGGAGTCACCTAGTGCAG | 19100 fluorescence intensity (a.u.) |
| TCCGACTCTCTTCGTCTCACTGCTCCGTGGGCCCACCCAACGGAGTCACCTAGTGCAG | 8200 fluorescence intensity (a.u.) |
| GGCTATCCCATCGTCGTTTGCTTTGATTTGATGCTTGTTTCGGAGTCACCTAGTGCAG | 11400 fluorescence intensity (a.u.) |
| GCACCGAACTCCGGCGAGCCCACGTGAACACCACCACTCTCGGAGTCACCTAGTGCAG | 9990 fluorescence intensity (a.u.) |

As entered above.
Under binding signal, TTCCCACTAACCCCAATTCACTCATGTTGTAGTATCCGTACGGAGTCACCTAGTGCAG reads 12100 fluorescence intensity (a.u.)
Under binding signal, GTCGATCTCCCCGTCCCGGTGGACTATCGCGCGCGTTTTTCGGAGTCACCTAGTGCAG reads 8620 fluorescence intensity (a.u.)

Remaining list, next part

| Sequence | binding signal |
| --- | --- |
| GTCCTCCTCCTGTGCCGCCGCGCTCTCTCTCTCTCTCGCTCGGAGTCACCTAGTGCAG | 8520 fluorescence intensity (a.u.) |
| GTTGTATCAATATGGCCCTGGTTAGATTCTAACTTTTTTTCGGAGTCACCTAGTGCAG | 9360 fluorescence intensity (a.u.) |
| GTTTGTTCGAGTTCAACGATTTGCCATCGACATTATCTCTCGGAGTCACCTAGTGCAG | 10100 fluorescence intensity (a.u.) |
| GTTTAATATTTATAATTCGTGTCCCGATGTGACACGGCTTCGGAGTCACCTAGTGCAG | 9030 fluorescence intensity (a.u.) |
| ATTTTATCACCCTGCTTAGAGTTTCGCCCGGAGCCATGAACGGAGTCACCTAGTGCAG | 10700 fluorescence intensity (a.u.) |
| GGTTTTTTGGCTTTGTACGGATCGATCTTGACTTGACTCGCGGAGTCACCTAGTGCAG | 9660 fluorescence intensity (a.u.) |
| GGGGAGTGAGGTGAAAGAAGTTGTCGATTGACTTGTGGGGCGGAGTCACCTAGTGCAG | 8210 fluorescence intensity (a.u.) |
| CCCCGTCCTCTGCTTCTCTCTCGTGTGCTCTGCTTCTTTCCGGAGTCACCTAGTGCAG | 15400 fluorescence intensity (a.u.) |
| CGCATATAAACGTAATGCAACCACACCCACTACACTTATTCGGAGTCACCTAGTGCAG | 8550 fluorescence intensity (a.u.) |
| TTTTCTAGCTTTTTTTAAAATAAATGGTGGTGTTTTTCTCCGGAGTCACCTAGTGCAG | 8420 fluorescence intensity (a.u.) |
| TTGAACTGTGCTTGTGTTTGCTCGATATTCGATATGTTTACGGAGTCACCTAGTGCAG | 9310 fluorescence intensity (a.u.) |
| ACCCATCAACGGCACTAGATTCCTTGTCGCGCTGCCATCGCGGAGTCACCTAGTGCAG | 9580 fluorescence intensity (a.u.) |
| ATCTCAATGAGTTGGTCGTTTGCTGCTTCTCTATAGTGAACGGAGTCACCTAGTGCAG | 9140 fluorescence intensity (a.u.) |
| AGCTTTTTATCACTTGGTCAGTGGTTTTTTCTTTTCCATTCGGAGTCACCTAGTGCAG | 12400 fluorescence intensity (a.u.) |
| CAAACGTTGGAAAAAAGTCAACGGCGTCATATATTTTAATCGGAGTCACCTAGTGCAG | 15800 fluorescence intensity (a.u.) |
| CAACTCCCATACGTAACGACATTTTAAATTAATTTGCCATCGGAGTCACCTAGTGCAG | 8830 fluorescence intensity (a.u.) |
| CGCTGTATGCTCTTGCTCTTAATATCTTGCGTGCTGGCTTCGGAGTCACCTAGTGCAG | 9860 fluorescence intensity (a.u.) |
| TCTTCACGCGCATACTTTTCAAACTGCTAAACGGTGCGTTCGGAGTCACCTAGTGCAG | 8080 fluorescence intensity (a.u.) |
| TGGTTCTTATCCATTCCATCAGTTGACTGTCAATCTTTCACGGAGTCACCTAGTGCAG | 9460 fluorescence intensity (a.u.) |
| GCCAGCCCGTCACACCGAGTCCAACGCCTTTCAACGCGCGCGGAGTCACCTAGTGCAG | 10800 fluorescence intensity (a.u.) |
| ACTTTCCGTTATTCTCATTTCAACCCTCGCATTTTTTACACGGAGTCACCTAGTGCAG | 11200 fluorescence intensity (a.u.) |
